The target of this assay is T1, Flag-RBFOX2 (UniProt O43251).
T1 sequence: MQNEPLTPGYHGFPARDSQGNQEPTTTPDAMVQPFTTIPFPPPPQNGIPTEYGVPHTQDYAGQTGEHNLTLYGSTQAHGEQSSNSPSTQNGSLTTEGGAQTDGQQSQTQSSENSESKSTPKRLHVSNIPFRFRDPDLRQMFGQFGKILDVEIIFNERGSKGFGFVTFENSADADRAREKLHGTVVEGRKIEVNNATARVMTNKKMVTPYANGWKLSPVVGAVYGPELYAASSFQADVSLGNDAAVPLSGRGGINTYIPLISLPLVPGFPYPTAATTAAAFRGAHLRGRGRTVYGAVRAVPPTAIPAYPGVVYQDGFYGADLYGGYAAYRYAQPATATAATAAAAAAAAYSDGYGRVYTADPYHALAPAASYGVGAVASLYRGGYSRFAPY
The experiment in a line: co-IP; anti-Flag antibody on protein G-sepharose, overnight with nuclear extract of HEK293 cells transfected with pCDNA3-Flag-RBFOX2 and then with RBFOXi or SCRM oligonucleotide; four washes with nuclear extract buffer; immunoblot. For orientation: In western blotting, separated proteins are transferred to a membrane and probed.

These are yes or no findings as the source states them, for the method shown. Binding seen in cells or lysates may run through a third protein. Some entries that bind do so weakly or less than the wild type. Where a sequence is shown, tags or fusion partners need not be part of it.

B1: hnRNP M (protein, UniProt P52272 1-730)
chain: MAAGVEAAAEVAATEIKMEEESGAPGVPSGNGAPGPKGEGERPAQNEKRKEKNIKRGGNRFEPYANPTKRYRAFITNIPFDVKWQSLKDLVKEKVGEVTYVELLMDAEGKSRGCAVVEFKMEESMKKAAEVLNKHSLSGRPLKVKEDPDGEHARRAMQKVMATTGGMGMGPGGPGMITIPPSILNNPNIPNEIIHALQAGRLGSTVFVANLDYKVGWKKLKEVFSMAGVVVRADILEDKDGKSRGIGTVTFEQSIEAVQAISMFNGQLLFDRPMHVKMDERALPKGDFFPPERPQQLPHGLGGIGMGLGPGGQPIDANHLNKGIGMGNIGPAGMGMEGIGFGINKMGGMEGPFGGGMENMGRFGSGMNMGRINEILSNALKRGEIIAKQGGGGGGGSVPGIERMGPGIDRLGGAGMERMGAGLGHGMDRVGSEIERMGLVMDRMGSVERMGSGIERMGPLGLDHMASSIERMGQTMERIGSGVERMGAGMGFGLERMAAPIDRVGQTIERMGSGVERMGPAIERMGLSMERMVPAGMGAGLERMGPVMDRMATGLERMGANNLERMGLERMGANSLERMGLERMGANSLERMGPAMGPALGAGIERMGLAMGGGGGASFDRAIEMERGNFGGSFAGSFGGAGGHAPGVARKACQIFVRNLPFDFTWKMLKDKFNECGHVLYADIKMENGKSKGCGVVKFESPEVAERACRMMNGMKLSGREIDVRIDRNA
B1: the binding result was “binds”.

The record behind these values is paper PMC6453957, “Specific inhibition of splicing factor activity by decoy RNA oligonucleotides”.
